Laboratory results reported in publication PMC6394990, “Detailed characterization of the solution kinetics and thermodynamics of biotin, biocytin and HABA binding to avidin and streptavidin” (PLoS ONE, 2019).

What was measured:
Type in all cases: physicochemical
[1] = Intrinsic lifetime, dynamic quantum yield and fraction of non-statically quenched molecules, unbound probe
[2] = Time-resolved anisotropy, cone angle, unbound probe; settings: 20°C
Description: The lifetimes were collected in a FluoTime100 fluorescence spectrometer (PicoQuant, GmbH, Berlin, Germany) with the excitation light source provided by a picosecond pulsed diode laser (PicoQuant, GmbH, Berlin, Germany) at 470 nm and 20 MHz. The emission was collected at 520 nm through a non-fluorescing 520 nm interference filter (Oriel Corp., Stratford, CT) followed by a liquid filter of 1cm path length containing 24 mM acetate buffered dichromate at pH 4, between the sample and detector to eliminate traces of excitation light. The fluorescence decays were fit by a nonlinear least-squares minimization based on the Marquardt algorithm embedded in the Fluofit software (PicoQuant GmbH). […] The PicoQuant G factor was calculated according to: G = ∫HV(t)dt/∫HH(t)dt, where HV(t) and HH(t) were the decays collected with the emission polarizer selecting vertical and horizontal E-vector passing orientations, respectively, and the excitation polarizer set at horizontally position. […]
In a simple model, the transition moment is assumed to wobble within a cone of semi-apical angle Ω [59], where the cone axis is normal to the surface of a sphere that corresponds to the macromolecule. The angle Ω is calculated from Eq 14.

[3] = Fluorescence lifetimes, unbound probe; settings: 20°C, pH 8
Description: (§1) The lifetimes (τ), steady state anisotropies (rss), time-resolved anisotropies (rt) and quantum yields (QY) of the complexes (at 20 ± 0.1°C and pH 8) were collected with a dye-labeled B7 probe concentration of 20–40 nM and 1040–2080 nM of either protein (AV or SAV) to ensure that only one binding site in the tetramer was filled with a ligand (AB1 filling model).
The lifetimes were collected in a FluoTime100 fluorescence spectrometer (PicoQuant, GmbH, Berlin, Germany) with the excitation light source provided by a picosecond pulsed diode laser (PicoQuant, GmbH, Berlin, Germany) at 470 nm and 20 MHz. The emission was collected at 520 nm through a non-fluorescing 520 nm interference filter (Oriel Corp., Stratford, CT) followed by a liquid filter of 1cm path length containing 24 mM acetate buffered dichromate at pH 4, between the sample and detector to eliminate traces of excitation light. The fluorescence decays were fit by a nonlinear least-squares minimization based on the Marquardt algorithm embedded in the Fluofit software (PicoQuant GmbH). […] The PicoQuant G factor was calculated according to: G = ∫HV(t)dt/∫HH(t)dt, where HV(t) and HH(t) were the decays collected with the emission polarizer selecting vertical and horizontal E-vector passing orientations, respectively, and the excitation polarizer set at horizontally position.

[4] = Absorbance and fluorescence emission spectra, unbound probe
Description: as §1
(§2) The QY values were obtained by using a reference fluorophore of known quantum yield and were calculated according to Parker and Rees, where the reference dye was fluorescein in 0.1N sodium hydroxide solution [46]. The emission fluorescence scans were collected from 480 nm to 700 nm with the excitation light set at 460 nm provided by the xenon arc lamp described above. These measurements were made on the AB1 complexes at high protein concentration.
Supplementary file pone.0204194.s001.docx: S1 Fig Absorbance spectra of dye-labeled B7 probes and respective complexes with AV and SAV. […] The spectra are normalized to the calculated molar absorptivies. […] The labeled probes and protein concentrations were 1 μM and 10 μM, respectively. (DOCX) Click here for additional data file.
Supplementary file pone.0204194.s002.docx: S2 Fig Fluorescence emission spectra of dye-labeled B7 and respective complexes with AV and SAV. […] The probe and protein concentrations were 20 nM and 1040 nM (AB1 filling model), respectively. (DOCX) Click here for additional data file.

[5] = Steady-state anisotropy (rss), unbound probe; settings: 20°C
Description: as §1
The rss measurements were collected using the Giblin-Parkhurst modification of the Wampler-Desa method as described previously. The fluorescence signal was detected in a model A-1010 Alphascan fluorimeter (Photon Technologies, Inc., Birmingham, NJ) equipped with an R928 PMT (Hamamatsu, Bridgewater, NJ). The excitation was provided by an Ar^+ ion laser (Coherent Innova 70–4 Argon, Santa Clara, CA) at 488 nm and 5–10 mW of power incident on the sample. […] The fluorimeter G factor was determined using a film polarizer and analyzer with an excitation at 488 nm provided by a xenon arc lamp (model A1010, Photon Technologies Inc, Princeton, NJ). The dissociation reactions of dye-labeled B7 and protein complexes were monitored by fluorescence changes and were also collected in the fluorimeter described above.

[6] = Quantum yields (QY), unbound probe
Description: as §1, §2

Row | SMILES | Dynamic Quantum Yield Φ [1] | Fraction of Non-Statically Quenched Dye 1-S [1] | Natural Lifetime τ° [1] | Cone Angle Ω [2] [degrees] | Lifetime τ [3] [ns] | Maximum Absorbance [4] [nm] | Maximum Emission [4] [nm] | Steady State Anisotropy rss [5] | Quantum Yield QY [6]
1 | O=C(CCCC[C@@H]1SC[C@@H]2NC(=O)N[C@@H]21)NCCNC(=O)c1ccc(-c2c3ccc(=O)cc-3oc3cc(O)ccc23)c(C(=O)O)c1 [BFl, Biotin-4-fluorescein] | 0.81 ± 0.04 | 0.65 ± 0.06 | 5.2 ± 0.2 | 90 | 4.03 ± 0.01 | 494 | 530 | 0.021 ± 0.002 | 0.52 ± 0.02
2 | NC(CCCCNC(=O)CCCC[C@@H]1SC[C@@H]2NC(=O)N[C@@H]21)C(=O)NCCCCCNC(=O)c1ccc(-c2c3cc(F)c(=O)cc-3oc3cc(O)c(F)cc23)c(C(=O)O)c1 (stereo partly drawn) [BcO, Oregon green 488 Biocytin] | 0.85 ± 0.02 | 1.00 ± 0.02 | 4.4 ± 0.1 | 90 | 3.75 ± 0.04 | 495 | 523 | 0.023 ± 0.002 | 0.91 ± 0.02
